This is an account of results in paper PMC5833452.

Protein sequences, listed by entry. Tags and fused reporters are not part of them. Lines headed by an entry give the natural chain unless they say otherwise; changes in a name come on top.
UniProt Q96KQ7: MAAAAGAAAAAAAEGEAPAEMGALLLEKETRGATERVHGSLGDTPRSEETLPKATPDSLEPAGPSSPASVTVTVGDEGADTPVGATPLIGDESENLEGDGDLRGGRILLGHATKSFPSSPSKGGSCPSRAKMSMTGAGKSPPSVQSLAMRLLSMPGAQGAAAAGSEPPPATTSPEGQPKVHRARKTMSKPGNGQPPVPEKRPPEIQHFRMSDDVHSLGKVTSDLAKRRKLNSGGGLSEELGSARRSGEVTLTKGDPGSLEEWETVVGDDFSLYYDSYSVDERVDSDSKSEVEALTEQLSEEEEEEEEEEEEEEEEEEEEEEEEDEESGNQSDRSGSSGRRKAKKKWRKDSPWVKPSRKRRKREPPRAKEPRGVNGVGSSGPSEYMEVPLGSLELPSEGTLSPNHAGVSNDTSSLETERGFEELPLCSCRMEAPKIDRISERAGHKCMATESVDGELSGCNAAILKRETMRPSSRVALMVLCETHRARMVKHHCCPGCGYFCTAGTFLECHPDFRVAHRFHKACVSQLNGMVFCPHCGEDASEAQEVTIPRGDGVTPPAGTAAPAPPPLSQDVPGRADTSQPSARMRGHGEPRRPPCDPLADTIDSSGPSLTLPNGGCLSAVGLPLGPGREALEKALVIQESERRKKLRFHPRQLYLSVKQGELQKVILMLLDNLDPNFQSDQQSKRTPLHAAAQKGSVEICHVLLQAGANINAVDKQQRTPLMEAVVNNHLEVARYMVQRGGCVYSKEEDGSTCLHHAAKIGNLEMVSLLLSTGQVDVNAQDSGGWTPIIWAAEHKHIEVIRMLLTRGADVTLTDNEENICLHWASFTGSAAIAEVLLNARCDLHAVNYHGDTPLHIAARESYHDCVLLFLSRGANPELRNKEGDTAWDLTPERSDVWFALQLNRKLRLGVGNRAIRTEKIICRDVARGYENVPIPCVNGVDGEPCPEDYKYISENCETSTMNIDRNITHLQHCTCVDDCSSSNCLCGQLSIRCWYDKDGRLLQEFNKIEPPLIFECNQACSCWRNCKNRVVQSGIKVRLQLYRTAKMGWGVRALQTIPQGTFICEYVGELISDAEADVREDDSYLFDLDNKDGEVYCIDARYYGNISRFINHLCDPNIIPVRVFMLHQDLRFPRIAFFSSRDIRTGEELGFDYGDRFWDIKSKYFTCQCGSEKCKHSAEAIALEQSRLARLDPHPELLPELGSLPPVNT
UniProt P04150: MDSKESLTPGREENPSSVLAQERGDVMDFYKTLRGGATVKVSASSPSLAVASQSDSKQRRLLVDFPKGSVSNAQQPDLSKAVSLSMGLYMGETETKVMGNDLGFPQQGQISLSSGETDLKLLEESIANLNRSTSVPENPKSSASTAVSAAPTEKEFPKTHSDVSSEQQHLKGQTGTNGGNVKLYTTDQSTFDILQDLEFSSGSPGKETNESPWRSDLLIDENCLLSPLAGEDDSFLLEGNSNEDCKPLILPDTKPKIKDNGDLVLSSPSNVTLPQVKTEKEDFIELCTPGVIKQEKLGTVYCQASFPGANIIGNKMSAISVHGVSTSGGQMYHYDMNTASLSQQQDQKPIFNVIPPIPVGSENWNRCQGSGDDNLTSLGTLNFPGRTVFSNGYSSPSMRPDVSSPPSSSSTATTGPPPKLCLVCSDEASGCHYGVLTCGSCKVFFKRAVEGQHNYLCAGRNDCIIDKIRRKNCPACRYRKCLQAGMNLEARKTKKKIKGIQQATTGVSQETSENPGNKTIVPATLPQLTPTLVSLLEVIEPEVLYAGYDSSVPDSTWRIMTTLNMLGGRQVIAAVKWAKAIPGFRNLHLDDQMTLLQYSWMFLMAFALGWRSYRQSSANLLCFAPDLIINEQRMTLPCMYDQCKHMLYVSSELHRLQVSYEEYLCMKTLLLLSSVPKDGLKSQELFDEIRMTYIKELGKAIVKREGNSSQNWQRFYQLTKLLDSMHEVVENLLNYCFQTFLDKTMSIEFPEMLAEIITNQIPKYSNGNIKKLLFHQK

For the assay, the target named is G9A (human (endogenous in BGC-823)) (UniProt Q96KQ7). The assay is described as follows: co-IP; endogenous G9A, GR and P300 immunoprecipitated from BGC-823 cells stimulated with DEX, examined by western blotting; protocol as in ref. 32. For orientation: Immunoblotting shows a protein as a band on a membrane.

These are yes or no findings as the source states them, for the method shown. Binding seen in cells or lysates may run through a third protein. Some results given as binding are weak or reduced against the parent protein; the word gives no strength.

As to GR (from UniProt P04150 1-777), the binding result is recorded as “binds”.
